A short description of this experiment: qHTS Assay for Modulators of Lamin A Splicing. As to conditions: HeLa LMNA splicing GFP/RFP minigene ratio, 48 h. The procedure, abridged:
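S3 HeLa cells stably expressing lamin A-EGFP splicing minigene plus DsRed2, 600 cells/well, 48 h compound exposure at 37C. Laser-scanning cytometry; analysed as GFP (500-530 nm)/RFP (575-640 nm) total intensity ratio; 0.5% DMSO vehicle.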
(In general: qHTS replaces the single test concentration by a dilution series.)

Where [1] appears, read: measured here: GFP splicing reporter channel.
Setting [2] is: measured here: RFP viability control channel.

This note sets out measurements from PubChem BioAssay AID1487 (National Center for Advancing Translational Sciences (NCATS), 2009).

For orientation: AC50 means the midpoint of the concentration-response curve, whichever way the signal moves.

The structures appear in SMILES notation. This is one part of the list. Further columns of the screen follow, without active or inactive calls. Most of these compounds were active or inconclusive in the main read-out, so they are no random draw. The note in brackets gives the kind of curve behind each potency; many fits are weak.

As to `O=C(CCS(=O)(=O)c1ccc(Br)cc1)Nc1ccc(Cl)c(C(F)(F)F)c1`, the AC50 by setting is: under setting [1], 25.1 µM [falling, single point]; under setting [2], 35.5 µM [falling, single point].
`Cc1cc(C)cc(-n2c(C)cc(C(=O)CSc3nnnn3C)c2C)c1`: under setting [2], the AC50 is 17.8 µM [rising, single point].
Still for that read-out and setting: the result for `COc1cccc(CN2CCN(S(=O)(=O)c3ccc(Br)cc3)CC2)c1` reads 14.1 µM [rising, single point].
In the case of `C/C(=N\NC(=O)C(=O)Nc1cc(Cl)ccc1Cl)c1ccncc1`, the AC50 under setting [1] was 10 µM [rising, single point].
On to `Cc1occc1C(=O)Nc1ccc(S(=O)(=O)N2CCCC2)cc1`, for which, under setting [2], the AC50 is 3.98 µM [rising, partial curve].
As for `COc1ccc(CNc2cc(-c3ccoc3)ncn2)c(OC)c1`, under setting [1], the AC50 is 11.2 µM [falling, partial curve, poor fit].
With `O=C(OC1CCOC1=O)c1cc(-c2cccs2)nc2ccccc12` (stereo unspecified), the AC50 under setting [1] is 2.82 µM [rising, partial curve] and the AC50 under setting [2] was 3.55 µM [rising, single point].
Turning to `O=C(COc1ccc(Cl)cc1)NCCc1csc(-c2ccc(F)cc2)n1`, the AC50 under setting [2] was 0.00562 µM [falling, full curve, poor fit].
For `CCN(CC)C(=O)c1cc(C(C)(C)C)c(O)c(C(C)(C)C)c1`, the AC50 reads like this: under setting [1], 12.6 µM [rising, single point]; under setting [2], 22.4 µM [rising, single point].
With `O=C(COc1ccc(Cl)cc1)Nc1ccc(C(=O)NCc2cccnc2)cc1`, the AC50 under setting [2] is 11.2 µM [rising, single point].
Same read-out and setting: with `COc1cccc(OC)c1C(=O)N1CCN(Cc2ccccc2C)CC1` the figure was 7.94 µM [rising, partial curve, poor fit].
Take `COc1ccc(Cn2c(=O)sc3ccccc32)cc1OC`: the AC50 reads like this: under setting [1], 2.82 µM [rising, full curve]; under setting [2], 3.98 µM [rising, full curve].
With `C#CCSc1nc(Cc2ccc(Cl)cc2)nc2ccccc12`, the AC50 reads like this: under setting [1], 35.5 µM [falling, single point]; under setting [2], 22.4 µM [falling, partial curve].
Regarding `O=S(=O)(c1ccc(Cl)cc1)N1CCN(c2ccc(N3CCOCC3)nn2)CC1`, under setting [2], the AC50 is 15.8 µM [rising, partial curve, poor fit].
As to `Cc1c(/C=N/NC(=O)CNc2ccccc2)c2ccccn2c1C(=O)c1ccccc1`, the AC50 under setting [2] is 10 µM [rising, partial curve, poor fit].
`CCCCCNC(=O)c1ccc2c(c1)nc(C)n2-c1cccc(C)c1`: the half-maximal activity concentration (AC50) under setting [1] was 4.47 µM [falling, partial curve, poor fit].
